## Results of single-concentration screens

The chains behind the UniProt entries cited, without tags or fusion partners. Residues count along the entry.
UniProt P9WNZ1, whole entry: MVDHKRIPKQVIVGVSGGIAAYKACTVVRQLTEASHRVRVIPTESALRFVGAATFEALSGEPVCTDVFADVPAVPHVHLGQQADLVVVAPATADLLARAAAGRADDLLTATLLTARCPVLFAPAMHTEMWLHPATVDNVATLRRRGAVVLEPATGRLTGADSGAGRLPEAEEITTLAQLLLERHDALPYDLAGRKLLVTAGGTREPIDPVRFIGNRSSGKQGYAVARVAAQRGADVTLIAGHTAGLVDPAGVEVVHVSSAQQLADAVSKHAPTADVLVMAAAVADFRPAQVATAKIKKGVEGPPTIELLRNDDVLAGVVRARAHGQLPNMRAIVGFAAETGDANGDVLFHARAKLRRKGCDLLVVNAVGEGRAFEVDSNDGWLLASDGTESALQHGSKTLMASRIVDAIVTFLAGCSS
UniProt P9WFT3, whole entry: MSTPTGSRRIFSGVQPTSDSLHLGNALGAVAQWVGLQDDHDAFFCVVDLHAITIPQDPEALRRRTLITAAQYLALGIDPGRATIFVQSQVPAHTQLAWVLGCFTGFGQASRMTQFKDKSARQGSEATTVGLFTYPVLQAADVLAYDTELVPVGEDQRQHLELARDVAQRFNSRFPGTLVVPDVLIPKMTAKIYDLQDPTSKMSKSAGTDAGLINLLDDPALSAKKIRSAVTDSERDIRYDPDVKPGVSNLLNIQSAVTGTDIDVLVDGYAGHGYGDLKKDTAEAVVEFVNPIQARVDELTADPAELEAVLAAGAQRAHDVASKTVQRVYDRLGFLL
UniProt P9WPC5, whole entry: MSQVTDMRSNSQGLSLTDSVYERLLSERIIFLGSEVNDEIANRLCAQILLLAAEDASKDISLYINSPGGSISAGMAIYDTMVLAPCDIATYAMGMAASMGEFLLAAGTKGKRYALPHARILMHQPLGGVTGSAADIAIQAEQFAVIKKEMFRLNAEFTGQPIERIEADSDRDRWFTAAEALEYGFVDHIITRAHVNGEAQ
UniProt P9WPC3, whole entry partner: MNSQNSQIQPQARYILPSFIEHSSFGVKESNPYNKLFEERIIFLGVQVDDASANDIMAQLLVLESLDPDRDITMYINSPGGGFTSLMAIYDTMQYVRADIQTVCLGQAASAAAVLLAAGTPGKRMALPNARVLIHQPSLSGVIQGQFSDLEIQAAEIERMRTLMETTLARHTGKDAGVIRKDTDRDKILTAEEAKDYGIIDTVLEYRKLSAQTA
UniProt A4I591, 1-473: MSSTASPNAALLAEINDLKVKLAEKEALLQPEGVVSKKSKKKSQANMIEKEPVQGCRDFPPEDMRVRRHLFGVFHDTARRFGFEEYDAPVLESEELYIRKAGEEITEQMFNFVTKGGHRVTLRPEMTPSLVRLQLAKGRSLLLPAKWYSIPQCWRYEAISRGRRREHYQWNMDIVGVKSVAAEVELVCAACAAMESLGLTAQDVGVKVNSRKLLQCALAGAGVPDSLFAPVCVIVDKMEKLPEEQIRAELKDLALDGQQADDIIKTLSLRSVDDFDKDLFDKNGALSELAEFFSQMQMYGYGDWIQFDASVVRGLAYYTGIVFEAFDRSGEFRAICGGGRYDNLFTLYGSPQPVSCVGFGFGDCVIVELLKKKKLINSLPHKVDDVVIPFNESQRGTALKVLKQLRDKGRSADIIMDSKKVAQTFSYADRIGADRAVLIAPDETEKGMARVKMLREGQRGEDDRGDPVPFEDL
UniProt Q4DA54, 1-478: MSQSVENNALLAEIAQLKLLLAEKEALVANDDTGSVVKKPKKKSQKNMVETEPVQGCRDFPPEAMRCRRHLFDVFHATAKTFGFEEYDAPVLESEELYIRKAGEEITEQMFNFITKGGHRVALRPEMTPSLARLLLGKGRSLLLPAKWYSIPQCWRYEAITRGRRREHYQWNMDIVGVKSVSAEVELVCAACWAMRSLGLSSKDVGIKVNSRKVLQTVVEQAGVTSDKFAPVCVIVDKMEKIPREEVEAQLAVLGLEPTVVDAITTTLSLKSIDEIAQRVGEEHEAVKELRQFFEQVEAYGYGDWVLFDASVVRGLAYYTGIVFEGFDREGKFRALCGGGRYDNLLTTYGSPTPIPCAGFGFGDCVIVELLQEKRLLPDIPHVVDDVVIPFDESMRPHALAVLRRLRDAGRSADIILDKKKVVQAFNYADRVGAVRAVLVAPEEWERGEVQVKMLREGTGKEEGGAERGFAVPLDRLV

CoaBC: 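Enzyme assay of CoaBC with a phosphate dye (Biomol Green) read at 650 nm. Target: Coenzyme A biosynthesis protein CoaBC, Mycobacterium tuberculosis (UniProt P9WNZ1). Concentration: 30 µM. Direction is inferred from only a few compounds that gave an IC50; most scored high, so higher reads as stronger inhibition. Most strong results did not repeat in a second test. Of about 67,000 compounds tested this way, about 40 (0.06%) reached 50% or more in at least one test.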
MtTrpRS: 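Tryptophan-tRNA ligase, Mycobacterium tuberculosis (UniProt P9WFT3). Enzyme assay of tryptophanyl-tRNA synthetase; the read-out is not stated. Concentration: 10 µM. Higher most likely means stronger inhibition; the record gives no direction and few retests gave an IC50. Of about 65,000 compounds tested this way, about 64 (0.098%) reached 50% or more in at least one test.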
ClpP1P2: 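Protease assay of ClpP1P2, read by the AMC dye that it sets free. Target: ClpP1P2, Mycobacterium tuberculosis (UniProt P9WPC5 and UniProt P9WPC3). Compounds at 50 µM. Higher reads as stronger inhibition, judged from the few compounds that gave an IC50. Most other retested compounds had strongly negative values. Of about 69,000 compounds tested this way, about 10 (0.015%) reached 50% or more in at least one test.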
LiHisRS: 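Histidine-tRNA ligase, Leishmania infantum (UniProt A4I591). Enzyme assay of histidyl-tRNA synthetase; the read-out is not stated. Tested at 30 µM. Direction is inferred from retests: higher values go with stronger inhibition. The assay is labelled LdHisRS but filed under L. infantum. Size under these conditions: about 69,000 compounds, about 410 of them at 50% or above in at least one test.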
TcHisRS: 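Enzyme assay of histidyl-tRNA synthetase; the read-out is not stated. Target: Histidine-tRNA ligase, Trypanosoma cruzi CL Brener (UniProt Q4DA54). Tested at 30 µM. Direction is inferred from retests: higher values go with stronger inhibition. Of about 69,000 compounds tested this way, about 31 (0.045%) reached 50% or more in at least one test.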

Each number is a percent effect as filed.
The record does not define 0% and 100%; most values in the screen are far below 50% and negative numbers occur (in some assays of this library far below -100).
Compounds were drawn at random from those tested, without regard to their results.
Two or more numbers in one place are separate tests of the same structure; such repeats can differ widely.
A dash means the value is not listed here; it may have been measured.

| SMILES | CoaBC | MtTrpRS | ClpP1P2 | LiHisRS | TcHisRS |
|---|---|---|---|---|---|
| `Cn1cc(CN2CCC3(CC2)COC(COc2ccccn2)C3)cn1` (stereo not given) | 9.273% | -0.1383% | -14.45% | 7.692% | 8.537% |
| `O=C(c1nc(=O)[nH][nH]1)N1CCCCCC1` | 0.123% | -3.903% | -15.27% | 11.29% | 5.747% |
| `CS(=O)(=O)N1CC[C@H](c2nc3ccc(C(F)(F)F)cc3[nH]2)C1` | 13.32% | -5.648% | -8.755% | 2.778% | 4.95% |
| `CC(C)OCCS(=O)(=O)c1nccn1-c1cccc(F)c1` | 2.981% | 3.138% | -14.42% | 15.87% | 2.564% |
| `CC1CN(C(=O)NCc2cccc(C#N)c2)CCN1CC(F)(F)F` (stereo not given) | -2.689% | -1.488% | -7.986% | 6.452% | -1.031% |
| `CN1CCO[C@@H]2CN(S(=O)(=O)c3cccs3)CC[C@@H]2C1` | 4.146% | - | 6.251% | 13.21% | 12.22% |
| `C=C(C)CN(CC)Cc1nc(CC)no1` | 7.265% | -4.211% | -16.01% | 0% | 1.622% |
| `CN1CCN(CCn2cnc3c(F)cccc3c2=O)CC1` | 5.034% | -1.147% | 0.3895% | 12.68% | 3.867% |
| `CC(NC(=O)Nc1nnc(-c2ccccn2)s1)C(=O)OC(C)(C)C` (stereo not given) | 7.376% | -1.837% | -2.197% | 16.13% | 3.247% |
| `Cc1cc(C)n(CCN2CCN(C(=O)c3ccc(Br)o3)CC2)n1` | 6.554% | 2.356% | -0.1531% | 19.13% | 5.155% |
| `Cc1cc(CN(C)C(=O)NCc2cccc(N3CCCC3=O)c2)no1` | -3.856% | -1.338% | 4.356% | 7.865% | 2.256% |
| `Cc1ccc(CNC(=O)CNCC2CCN(CCO)CC2)s1` | -0.4914% | -1.41% | -5.103% | 15.05% | -11.11% |
| `COCCN1CCC(Cc2cncc(-c3ccc(C(=O)O)cc3)n2)CC1` | -2.206% | - | 2.656% | 3.125% | 2.128% |
| `O=C(COC1CCCC1)NS(=O)(=O)c1ccc2c(c1)OCCCO2` | 0.9126% | -8.073% | -0.08655% | 2.632% | 3.468% |
| `O=C(NCc1ncc[nH]1)c1c(F)cccc1I` | 13.68% | 10.64% | -24.83% | 10.26% | -0.5405% |
| `Cc1ccc(-c2nc(CN3CCc4c(ncn4C)C3)cs2)o1` | 5.959% | -7.795% | -8.469% | 8.511% | 8.397% |
| `Cn1ccnc1CN1CCCC(Cc2ccccn2)C1` (stereo not given) | 1.667% | 3.428% | -4.263% | 33.33% | -2.703% |
| `CCN1CCCC(O)(CNCc2ccccn2)C1` (stereo not given) | -23.63% | -1.685% | -4.696% | 20.59% | 6.878% |
| `CC(C)C(=O)N1CCN(Cc2cnn(C)c2)CC2(CC(=O)N(C)C2)C1` (stereo not given) | 5.263% | 0.2766% | -0.3507% | 23.08% | 1.22% |
| `Cc1ccc(S(=O)(=O)NC[C@H]2OC[C@@H](NCc3cccs3)[C@@H]2O)cc1` | 13.76% & 20.09% | 7.967% | -12.55% | 20.27% | -2.174% |
| `Cc1noc(C2CCN(C(=O)CN(C)c3ccc(Cl)cn3)CC2)n1` | 0.7772% | -4.974% | 6.781% | 17.02% | -2.29% |
| `O=C(NCc1cccnc1N1CCCCC1)c1cccs1` | 5.455% | -0.7787% | -20.15% | 5.357% | 5.187% |
| `Cc1cc2cc(Nc3c(C#N)c(=O)n(C)c(=O)n3C)ccc2[nH]1` | 0.8584% | -2.726% | 2.182% | 19.67% | 2.326% |
| `Cn1ccnc1CN1CCC2(CC1)CN(Cc1ccccc1)C(=O)CO2` | -1.895% | 1.355% | 7.796% | 15.04% | 9.677% |
| `Cc1nc(C)c(C(=O)N2CCc3nnc(C4CCCCN4C)n3CC2)o1` (stereo not given) | 7.078% | -0.5028% | -10.07% | 13.42% | 2.571% |
| `CCS(=O)(=O)N1Cc2nccn2CC(Cn2cncn2)C1` (stereo not given) | 1.951% | - | 2.91% | 9.434% | 10% |
| `CCc1ncc(CN(C)C2CCN(C(C)C)CC2)cn1` | 10.02% | 15.22% | 25.08% | 12.77% | 11.65% |
| `Cc1cncc(NC(=O)c2ccc(CN3CCC(CO)CC3)cc2)c1` | 4.051% | -0.4772% | -5.588% | 15.79% | 2.439% |
| `O=C(c1nc2c(s1)CCCN2C(=O)C1CC1)N1CCOCC1` | 4.44% | -1.762% | -2.481% | 15.79% | 2.151% |
| `c1csc(-c2noc(CCCN3CCCC3Cn3cccn3)n2)c1` (stereo not given) | 6.287% | 1.8% | 7.073% | 40.48% | 4.511% |
| `Cc1c(Br)cccc1C(=O)Nc1cc(C(N)=O)n(C)c1` | 1.146% | -0.5113% | 1.881% | -3.109% | 3.867% |
| `O=C(C1CC(=O)N(c2n[nH]c3cc(Br)ccc23)C1)N1CCOCC1` (stereo not given) | 1.337% | 2.412% | -6.376% | 21.74% | 12.87% |
| `Cc1cc(C)cc(CN2C[C@@H]3OCCN(CC(=O)N(C)C)[C@@H]3C2)c1` | 2.475% | - | 0.3211% | 13.51% | 7.735% |
| `Cn1cc(C(=O)NC[C@H]2OC[C@@H]3CCN(C4CCOCC4)C[C@@H]32)cn1` | 2.083% | -7.828% | -8.581% | 9.402% | 6.952% |
| `Cc1nc(CN2CCCN(CC(=O)Nc3cccnc3)CC2)no1` | 2.821% | 0.2346% | 22.79% | 13.33% | 5.66% |
| `c1ccc(Cc2noc(-c3ccc(NCC4COCCO4)nc3)n2)cc1` (stereo not given) | 5.178% | 1.665% | -8.249% | 8.235% | 6.03% |
| `CC(C)(C)c1ncc(CNc2ccn(CCc3ccncc3)n2)s1` | - | -1.342% | 0.9863% | 14.29% | 3.896% |
| `Cc1c(C(=O)NC2CCCOC2)nnn1-c1ccc(Cl)cc1F` (stereo not given) | -3.067% | 0.2467% | -0.3545% | 11.76% | 2.469% |
| `COCC(=O)N[C@H]1C[C@@H](Cc2cc(CN3CCOCC3)on2)C1(C)C` | -3.871% | 3.81% | -8.369% | -8.333% | 0.4975% |
| `Cc1ncc(-c2ccnc(N3CC[C@H](O)C3)n2)c(-c2cccnc2)n1` | 3.976% | - | -9.338% | 28.57% | 9.04% |
| `CC(C)[C@@H]1CN(C(=O)CN(C)Cc2ccccc2)C[C@H]1C(=O)O` | -0.6135% | -3.372% | -12.77% | 5.882% | 3.704% |
| `CN(C)CCn1ccc2ccc(NC(=O)c3ccncc3F)cc21` | - | 2.27% | -3.841% | 19.17% | 7.895% |
| `c1ccc(-c2noc(CN3CCOC(Cn4cccn4)C3)n2)nc1` (stereo not given) | 2.926% | -3.459% | 10.88% | -4% | 0.3802% |
| `Cc1nn2c(nc1=O)-c1ccccc1NC2C(=O)O` (stereo not given) | 13.27% | -2.457% | 7.369% | 26.76% | 3.867% |
| `CC(=O)NC1CCN(c2nc(N(C)C)nc3c2CCCC3)CC1` | 9.829% | 0.3569% | -18.84% | 6.838% | -0.5405% |
| `O=c1cc(N2CCNCC2)cnn1CCc1ccc(F)cc1` | 2.211% | 2.821% | -14.87% | 25.81% | 6.173% |
| `O=C(c1cc(=O)[nH]c(=O)[nH]1)N1CCCCC1c1nc2cc(F)ccc2[nH]1` (stereo not given) | -2.532% | 1.137% | 1.745% | 18.27% | 0% |

Some entries from above, unchanged:

| SMILES | CoaBC | MtTrpRS | ClpP1P2 | LiHisRS | TcHisRS |
|---|---|---|---|---|---|
| `O=C(NCc1cccnc1N1CCCCC1)c1cccs1` | 5.455% | -0.7787% | -20.15% | 5.357% | 5.187% |
| `Cc1nn2c(nc1=O)-c1ccccc1NC2C(=O)O` (stereo not given) | 13.27% | -2.457% | 7.369% | 26.76% | 3.867% |
| `Cc1nc(CN2CCCN(CC(=O)Nc3cccnc3)CC2)no1` | 2.821% | 0.2346% | 22.79% | 13.33% | 5.66% |

Measurements from “University of Dundee, Small-Polar-MMV Screening Library” (2021), ChEMBL document CHEMBL3988442.